Test results from PubChem BioAssay AID1347426 (Functional Genomics Laboratory (NCATS/FGL), 2020).
Out of some 31,000 sequences screened, about 1,400 (4.5%) were called active.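 The calls were made as follows: active = median seed-adjusted z-score above 1 or below -1; inactive = the rest.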 Some of the results follow.

Assay: Novel Modifiers of Survival Motor Neuron (SMN) Protein: Gene Identification via Genome-wide siRNA Screen;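 also: luminescence tracks full-length SMN protein made from the SMN2 reporter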
Details: HEK293T SMN2-luciferase reporter, siRNA knockdown, 72 h; actives lie on both sides
Outline: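 Steps: spot 1 pmol siRNA, add Lipofectamine RNAiMax in serum-free DMEM, seed HEK293T SMN2–luciferase reporter cells; incubate 72 h at 37 °C; add ONE-Glo; normalize luminescence to control siRNA, log10, MAD. Candidates: |MAD| > 1.0.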

Sequence	median seed-adjusted z-score
GGAUCAUCCUGAUAUUGUUTT against IPO13	inactive: 0.612
GGCAGUUAAUGGAGAAGUUTT against TERF2IP	inactive: 0.765
CCAGAAUCCAGUUCUCCGATT against TLR6	inactive: 0.505
GUUAAUCACCUGUAUGUCATT against RAPGEF5	inactive: 0.529
CGAGUGAAAGAAUCAAUAUTT against OXSR1	inactive: -0.0682
GUCGCUCUAUCACAAAGAATT against FOXK1	inactive: 0.63
GGUUAUAACGGGACGAUUUTT against KIF5C	inactive: 0.283
GGUCUGUUCUGCAAGCACATT against PARVG	inactive: 0.321
GCUACAUCCAUACCAGAUATT against NR2E1	inactive: 0.559
CCCUCCAACUUAGCCCUGATT against RAB33A	inactive: 0.307
GAGAAGAUGCUGAACAUCATT against UBTF	inactive: 0.942
GCAGAAUAACUGGAUCUAATT against RPA2	inactive: -0.0957
GGGUGAUUCUUUCAAUACUTT against SEC23A	inactive: 0.131
AGCACGAAGGCAAACCCUATT against CRIP1	inactive: -0.622
GGAUGUAUGCAACCCAGAATT against SLC18A1	inactive: 0.0986
GCAUGAACCUGACGGUGAATT against ZIC4	inactive: 0.512
CCAUAGGUGGUUUACCAAATT against IL1RL2	inactive: -0.555
GAACCAAAUUGUACGAGAATT against IRX3	inactive: -0.285
AGCGGUUCUUGGUCCUGUATT against APBA3	inactive: -0.119
CCUCAAGGAUGGAAUCCGATT against ZNF367	inactive: -0.377
GCCUCUACAAGUUCAUGAATT against ARID5A	inactive: 0.0642
GCCGAUGAGUUGCUGAAUATT against AP2A1	inactive: 0.559
CCAACAUUCUGAGUGCCCATT against SERPINE1	inactive: 0.18
CAGAAAAACUUGCUACUGATT against ZNF232	inactive: 0.39
AUACAGACCUCAGAUCUUATT against NHLH1	inactive: -0.0084
CGUACACCAUGAUCGGGAATT against KIF26A	inactive: -0.428
CGUCGAGUAUUUCCAACUATT against BAI3	inactive: 0.0657

Copied from the list.
CCAACAUUCUGAGUGCCCATT against SERPINE1 | median seed-adjusted z-score: inactive: 0.18
GGAUCAUCCUGAUAUUGUUTT against IPO13 | median seed-adjusted z-score: inactive: 0.612

(list continues)

Sequence	median seed-adjusted z-score
CUAGAGUAUUUUGAUCUAATT against FAT2	inactive: -0.286
GGAUCAACGUGGUCCGGAATT against AQP6	inactive: 0.008
CCUCAAAAUCGACACCAUUTT against EPHA8	inactive: 0.217
ACGAGAUCCUGACACCCAATT against MYH14	inactive: -0.307
GCACGGUGCAGAACAACAATT against NR5A1	inactive: -0.467
GGAACUAUAUUUGGGCUUUTT against NEUROD4	inactive: 0.0349
CAAGCGCAUUUAUUAUCUUTT against PYGB	inactive: -0.292
GCAAUGAGAUGAACACCGATT against NPEPL1	active: 1.12
GCUCAUACGUUACUCAGCATT against ZNF519	inactive: 0.0162
GAAUUGAUAGCUAAAGGCATT against TRIM36	inactive: -0.262
CGAUGACUCAGAAAAGCGATT against ARHGEF10	inactive: 0.22
GGCUAAGUAAAAAUGAGUATT against PCDHA11	inactive: 0.582
CCAUGAUUAGAUUUCGGUATT against SENP5	inactive: 0.215
GGAUCGAUUCUGAAUAUGATT against PAPSS1	inactive: -0.648
GCGUGACGAUCAUGGACUATT against APOBEC3B	inactive: 0
GCACAAGACUGAAUAACGATT against FAM3B	inactive: -0.327
CUGUAGAUACUGUAUCAAATT against DVL1	inactive: -0.814
CAAGCAUGCAUGUAGGGAATT against TLK2	inactive: 0.347
GGAACGAUGUCACUCAGCATT against PLK4	inactive: -0.0888
GGACUAAUGAUGGAGACUATT against SCARB2	inactive: -0.244
UUCUCAUCCUGAUCUGUUUTT against CD1E	inactive: -0.133
CAAUUGUCUUACUCAUCAATT against NCOA4	inactive: -0.0638
CAUCUUCAGUCUGUACAAATT against KIR2DL5B	active: 1.72
CCUGAGUGAUACUAAAGAATT against GALR1	inactive: -0.721
GCACUGCUUUGAAUGCUAUTT against TTLL1	inactive: 0.322
GUAUGUCAAGGAGAACGGATT against CTSL2	active: -1.04
